The structures given here were assigned with low confidence; some may be wrong.
Target: RXFP1 (Homo sapiens, UniProt Q9HBX9)
Experiment: RXFP1 cAMP assay in HEK293-RXFP1 cells (HTRF)
Assay type: cell-based
Conditions: percentage of the maximal receptor activation induced by high concentrations of forskolin; Tables 1-7

Protein sequences, listed by entry. Tags and fused reporters are not part of them.
UniProt Q9HBX9, whole entry: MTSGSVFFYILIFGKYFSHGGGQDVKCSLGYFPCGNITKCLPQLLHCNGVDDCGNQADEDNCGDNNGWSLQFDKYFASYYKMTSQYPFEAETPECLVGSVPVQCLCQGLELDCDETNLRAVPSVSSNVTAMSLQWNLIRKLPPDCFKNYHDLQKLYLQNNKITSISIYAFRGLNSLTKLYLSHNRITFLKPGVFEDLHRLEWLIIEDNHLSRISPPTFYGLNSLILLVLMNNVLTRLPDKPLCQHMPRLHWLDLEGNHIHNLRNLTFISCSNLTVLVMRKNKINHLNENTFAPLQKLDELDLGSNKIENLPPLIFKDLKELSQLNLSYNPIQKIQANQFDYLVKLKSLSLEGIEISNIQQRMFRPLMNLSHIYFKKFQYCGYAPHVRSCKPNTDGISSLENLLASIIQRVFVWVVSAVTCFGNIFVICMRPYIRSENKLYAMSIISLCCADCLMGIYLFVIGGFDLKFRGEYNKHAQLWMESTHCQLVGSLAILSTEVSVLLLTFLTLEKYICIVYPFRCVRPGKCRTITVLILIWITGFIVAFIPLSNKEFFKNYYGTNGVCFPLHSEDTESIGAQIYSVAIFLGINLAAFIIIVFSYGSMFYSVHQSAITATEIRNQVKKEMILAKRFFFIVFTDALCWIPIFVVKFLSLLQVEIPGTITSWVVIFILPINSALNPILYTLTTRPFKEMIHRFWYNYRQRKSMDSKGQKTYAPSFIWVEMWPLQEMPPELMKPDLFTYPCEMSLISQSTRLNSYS

Row | Max Response [%] | SMILES
1 | 93 | CCOc1ccccc1C(=O)Nc1ccccc1C(=O)Nc1cccc(C(C)(C)C)c1
2 | 37 | CCOc1ccccc1C(=O)Nc1ccccc1C(=O)Nc1cccnc1

Source: US10125112B2
